Assay results: article PMC12568645
Results are given in words; binding and its absence hold for the method and conditions named. In cells and extracts the contact can be indirect. These calls come from enrichment with a bait or labelling near it, and not all partners need be listed.

Chains of the proteins cited; added tags and fusions are not shown.
UniProt Q9Y508: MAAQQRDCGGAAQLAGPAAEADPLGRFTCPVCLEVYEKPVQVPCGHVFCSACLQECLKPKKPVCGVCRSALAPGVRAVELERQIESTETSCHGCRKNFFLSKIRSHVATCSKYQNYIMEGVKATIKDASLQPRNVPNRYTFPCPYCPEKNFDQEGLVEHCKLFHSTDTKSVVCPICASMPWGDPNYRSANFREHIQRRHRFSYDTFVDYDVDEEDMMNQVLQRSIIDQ
UniProt Q9H0J9: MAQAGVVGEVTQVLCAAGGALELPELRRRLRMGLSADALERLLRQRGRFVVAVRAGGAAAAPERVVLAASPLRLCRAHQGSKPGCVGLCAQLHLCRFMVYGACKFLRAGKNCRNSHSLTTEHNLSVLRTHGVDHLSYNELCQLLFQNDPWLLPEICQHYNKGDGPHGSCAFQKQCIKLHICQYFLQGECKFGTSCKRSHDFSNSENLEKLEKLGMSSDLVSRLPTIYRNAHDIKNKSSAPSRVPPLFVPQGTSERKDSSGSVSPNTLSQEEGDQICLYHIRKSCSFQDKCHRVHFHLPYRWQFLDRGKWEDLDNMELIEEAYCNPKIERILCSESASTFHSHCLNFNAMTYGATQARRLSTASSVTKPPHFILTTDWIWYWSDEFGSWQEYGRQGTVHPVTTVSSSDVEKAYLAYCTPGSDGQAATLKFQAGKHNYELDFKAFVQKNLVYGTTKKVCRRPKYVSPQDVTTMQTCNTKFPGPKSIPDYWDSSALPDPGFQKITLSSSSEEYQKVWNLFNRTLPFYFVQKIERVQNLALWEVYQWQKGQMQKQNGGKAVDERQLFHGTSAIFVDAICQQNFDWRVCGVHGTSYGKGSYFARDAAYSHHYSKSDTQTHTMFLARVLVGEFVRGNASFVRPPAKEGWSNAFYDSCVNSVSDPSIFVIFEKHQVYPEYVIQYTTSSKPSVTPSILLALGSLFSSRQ
UniProt P18887: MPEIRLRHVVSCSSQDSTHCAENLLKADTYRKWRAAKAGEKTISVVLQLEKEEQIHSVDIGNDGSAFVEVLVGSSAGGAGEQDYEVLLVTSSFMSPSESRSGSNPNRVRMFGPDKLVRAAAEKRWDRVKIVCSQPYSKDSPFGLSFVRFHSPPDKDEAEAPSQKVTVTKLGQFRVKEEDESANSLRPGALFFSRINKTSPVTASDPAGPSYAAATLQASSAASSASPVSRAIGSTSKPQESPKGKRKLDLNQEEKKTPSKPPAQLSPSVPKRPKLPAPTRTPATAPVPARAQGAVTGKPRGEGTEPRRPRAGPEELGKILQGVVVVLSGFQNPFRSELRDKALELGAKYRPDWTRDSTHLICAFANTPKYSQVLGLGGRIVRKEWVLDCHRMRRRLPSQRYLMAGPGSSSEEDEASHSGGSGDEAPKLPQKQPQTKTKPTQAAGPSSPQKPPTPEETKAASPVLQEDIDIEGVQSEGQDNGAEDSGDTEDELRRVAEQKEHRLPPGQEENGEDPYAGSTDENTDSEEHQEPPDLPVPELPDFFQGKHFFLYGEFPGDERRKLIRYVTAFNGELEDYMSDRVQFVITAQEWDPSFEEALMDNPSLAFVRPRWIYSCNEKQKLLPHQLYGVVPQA

Biological target: GFP-tagged RNF114 wild type (UniProt Q9Y508)
Assay: affinity purification with mass spectrometry; GFP pulldown (GFP-TRAP magnetic particles) from RNF114-KO U2OS cells with inducible GFP–RNF114 WT or C176A, untreated or 1 mM H2O2 for 60 min; nondenaturing; on-bead trypsin digestion, DIA MS; four biological replicates

Row | binding | Molecule
1 | binds | ADP-ribosyltransferase PARP12 (from UniProt Q9H0J9 1-701)
2 | binds | XRCC1 (from UniProt P18887 1-633)
3 | binds | LIG3 (protein, UniProt P49916 43-1009) LLHGHPLFLRRKPVLSFQGSHLRSRATYLVFLPGLHVGLCSGPCEMAEQRFCVDYAKRGTAGCKKCKEKIVKGVCRIGKVVPNPFSESGGDMKEWYHIKCMFEKLERARATTKKIEDLTELEGWEELEDNEKEQITQHIADLSSKAAGTPKKKAVVQAKLTTTGQVTSPVKGASFVTSTNPRKFSGFSAKPNNSGEAPSSPTPKRSLSSSKCDPRHKDCLLREFRKLCAMVADNPSYNTKTQIIQDFLRKGSAGDGFHGDVYLTVKLLLPGVIKTVYNLNDKQIVKLFSRIFNCNPDDMARDLEQGDVSETIRVFFEQSKSFPPAAKSLLTIQEVDEFLLRLSKLTKEDEQQQALQDIASRCTANDLKCIIRLIKHDLKMNSGAKHVLDALDPNAYEAFKASRNLQDVVERVLHNAQEVEKEPGQRRALSVQASLMTPVQPMLAEACKSVEYAMKKCPNGMFSEIKYDGERVQVHKNGDHFSYFSRSLKPVLPHKVAHFKDYIPQAFPGGHSMILDSEVLLIDNKTGKPLPFGTLGVHKKAAFQDANVCLFVFDCIYFNDVSLMDRPLCERRKFLHDNMVEIPNRIMFSEMKRVTKALDLADMITRVIQEGLEGLVLKDVKGTYEPGKRHWLKVKKDYLNEGAMADTADLVVLGAFYGQGSKGGMMSIFLMGCYDPGSQKWCTVTKCAGGHDDATLARLQNELDMVKISKDPSKIPSWLKVNKIYYPDFIVPDPKKAAVWEITGAEFSKSEAHTADGISIRFPRCTRIRDDKDWKSATNLPQLKELYQLSKEKADFTVVAGDEGSSTTGGSSEENKGPSGSAVSRKAPSKPSASTKKAEGKLSNSNSKDGNMQTAKPSAMKVGEKLATKSSPVKVGEKRKAADETLCQTKVLLDIFTGVRLYLPPSTPDFSRLRRYFVAFDGDLVQEFDMTSATHVLGSRDKNPAAQQVSPEWIWACIRKRRLVAPC
